{
  "source": "paper PMC3714738",
  "molecules": {"B1": {"name": "Wash1 (Wiskott–Aldrich Syndrome Protein and SCAR Homologue 1), endogenous in rat brain (protein, UniProt B2RYF7 1-475)", "chain": "MTAVKTQHSLAGQVYAVPLIQPDLRREEAIQQVADALQYLQNISGDIFSRISQRVELSRRQLQAIGERVSLAQAKIEKIKGSKKAIKVFSSAKYPAPEHLQEYNSVFTGALDPGLQRRPRYRIQSKHRPLDERALQEKLKYFPVCVSTKSEPEDEAEEGLGGLPSNISSISSLLLFNTTENLYKKYVFLDPLAGAVTKTHTMLGTEEEKLFDAPLSISKREQLEQPAPENYFYVPGLGQVPEIDVPSYLPDLPGVADDLMYSADLGPGIAPSAPGAIPELPAFHTEVAEPFQPEREDGALLAPPPPPPPPPPPPPPAPTAVVSAPQPPMSPDVVTVTGKVAREEDSGSGEAHSASVQGAPKEVVDPSSGRATLLESIRQAGGIGKAKLRSVKERKLEKKKQKEQEQVRATSQGGDLMSDLFNKLVMRRKGISGKGPGTGTSEGPGGAFSRMSDSIPPLPPPQQPAGDEDEDDWES"}},
  "key": {"[1]": {"biological_target": "T1, Wash1 (Wiskott–Aldrich Syndrome Protein and SCAR Homologue 1), endogenous in rat brain (rat (endogenous in rat brain)) (UniProt B2RYF7)", "T1 sequence": "B1 chain", "assay": "co-IP; rat brain lysate; endogenous proteins immunoprecipitated with antibodies against them, then immunoblotted"}, "[2]": {"biological_target": "VPS26, endogenous in rat brain (rat (endogenous in rat brain))", "assay": "co-IP; rat brain lysate; endogenous proteins immunoprecipitated with antibodies against them, then immunoblotted"}},
  "note": "These are yes or no findings as the source states them, for the method shown. Binding seen in cells or lysates may run through a third protein. Binding calls can cover weak binding; strength is not graded here.",
  "data": [
    {"molecule": "VPS26, endogenous in rat brain", "values": [
      {"measurement": "binding", "setting": "[1]", "value": "binds"}
    ]},
    {"molecule": "B1", "values": [
      {"measurement": "binding", "setting": "[2]", "value": "binds"}
    ]}
  ]
}
